The assay addresses T1, TAP-tagged Rrp6 protein (S. cerevisiae), Q12149.
T1 chain: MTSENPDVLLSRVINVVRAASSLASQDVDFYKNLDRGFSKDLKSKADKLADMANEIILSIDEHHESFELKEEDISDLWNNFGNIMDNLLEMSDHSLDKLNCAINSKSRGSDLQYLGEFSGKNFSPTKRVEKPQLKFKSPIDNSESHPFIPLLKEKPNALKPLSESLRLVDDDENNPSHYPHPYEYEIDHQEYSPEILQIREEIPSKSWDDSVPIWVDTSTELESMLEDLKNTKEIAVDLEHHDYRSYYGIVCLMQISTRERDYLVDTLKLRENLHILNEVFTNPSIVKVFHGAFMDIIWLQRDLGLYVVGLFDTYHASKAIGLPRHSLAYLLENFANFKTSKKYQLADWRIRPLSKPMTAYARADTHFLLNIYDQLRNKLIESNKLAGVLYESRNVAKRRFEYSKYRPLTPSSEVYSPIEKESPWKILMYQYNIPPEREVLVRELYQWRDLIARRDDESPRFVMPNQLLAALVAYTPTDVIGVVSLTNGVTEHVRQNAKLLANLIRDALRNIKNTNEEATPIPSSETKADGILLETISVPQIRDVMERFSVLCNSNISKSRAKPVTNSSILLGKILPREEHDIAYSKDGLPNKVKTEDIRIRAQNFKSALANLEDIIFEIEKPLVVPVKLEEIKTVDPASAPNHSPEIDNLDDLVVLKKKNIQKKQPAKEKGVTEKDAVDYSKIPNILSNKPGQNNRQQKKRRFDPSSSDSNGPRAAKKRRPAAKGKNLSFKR
In words: co-IP; TAP-tagged protein affinity-purified from yeast extract on IgG Sepharose; eluates in buffer A (120 mM KCl); Western blot with anti-Trf4p, anti-Mtr4p and anti-TAP antibodies. The following applies: remark: other sources report otherwise. A general note: A western blot detects proteins with antibodies after separation by electrophoresis.

No constants are given. Whether binding was seen depends on the method and setting. In cells and extracts the contact can be indirect. Tags and fused reporters may be left off the sequences shown.

B1: Trf4p, P53632 1-584 (enzyme)
chain: MGAKSVTASSSKKIKNRHNGKVKKSKKIKKVRKPQKSISLNDENEVEILPSRNEQETNKLPKDHVTADGILVLEHKSDDDEGFDVYDGHFDNPTDIPSTTEESKTPSLAVHGDEKDLANNDDFISLSASSEDEQAEQEEEREKQELEIKKEKQKEILNTDYPWILNHDHSKQKEISDWLTFEIKDFVAYISPSREEIEIRNQTISTIREAVKQLWPDADLHVFGSYSTDLYLPGSDIDCVVTSELGGKESRNNLYSLASHLKKKNLATEVEVVAKARVPIIKFVEPHSGIHIDVSFERTNGIEAAKLIREWLDDTPGLRELVLIVKQFLHARRLNNVHTGGLGGFSIICLVFSFLHMHPRIITNEIDPKDNLGVLLIEFFELYGKNFGYDDVALGSSDGYPVYFPKSTWSAIQPIKNPFSLAIQDPGDESNNISRGSFNIRDIKKAFAGAFDLLTNRCFELHSATFKDRLGKSILGNVIKYRGKARDFKDERGLVLNKAIIENENYHKKRSRIIHDEDFAEDTVTSTATATTTDDDYEITNPPAKKAKIEEKPESEPAKRNSGETYITVSSEDDDEDGYNPYTL
Take B1: the binding entry is “no binding”.

The values are drawn from article PMC1079787.
